Hit rate of the full screen: of about 410,000 compounds, about 18,000 (4.4%) were called active. Inconclusive results, whose numbers are uncertain, are shown with a selection of clear calls. No stated cut-off is given here; in the data, active means activity change below about -60%; inconclusive means no clear call, values can overlap the other calls; inactive means above about -39%.
assay: qHTS Assay for inhibitors of the human cytomegalovirus (HCMV); details: HFF cells, HCMV-luciferase reporter, 72 h; at 57.5 µM; hits give low values
How it was run: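 Human foreskin fibroblasts infected with luciferase-reporter HCMV at MOI 1 PFU/cell, compounds at two doses. Luciferase measured 72 h post infection; normalized to buffer-only basal and Salinomycin (10uM) controls.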
On the % scale 0 is the no-effect control and ±100 the full control effect.

With `O=C(Nc1ccc(-c2csc(Nc3ccccc3)n2)cc1)c1cc([N+](=O)[O-])cc(C(F)(F)F)c1` as the compound, how does the activity change, negative = inhibition read?
The activity change, negative = inhibition was active: -74.1%.

For `CCn1c(SCc2ccc([N+](=O)[O-])cc2)nnc1C(C)NC(=O)c1ccccc1Br` (stereo not given), which activity change, negative = inhibition is on record?
Its activity change, negative = inhibition is inconclusive: -45.1%.

With `CCOC(=O)C1=C(Cc2ccc(F)cc2)C(=O)c2ccccc2C1=O` as the compound, how does the activity change, negative = inhibition read?
The activity change, negative = inhibition was inactive: 18.3%.

Which activity change, negative = inhibition does the source give for `O=C(COC(=O)CNS(=O)(=O)c1c(Cl)cccc1Cl)Nc1ccccc1Sc1ccccc1` here?
Its activity change, negative = inhibition is inconclusive: -53.2%.

With `CC(=O)Nc1ccc(SCC(=O)Nc2cc(C(C)(C)C)nn2-c2ccccc2)cc1` as the compound, how does the activity change, negative = inhibition read?
The activity change, negative = inhibition was inconclusive: -46.4%.

With `c1ccc(Cn2ncc3ccccc32)cc1` as the compound, how does the activity change, negative = inhibition read?
Its activity change, negative = inhibition is inactive: 9.92%.

Which activity change, negative = inhibition does the source give for `COc1ccc(-c2cc(C(F)(F)F)n3nc(C(=O)N4CCCCC4)cc3n2)cc1` here?
The activity change, negative = inhibition was inconclusive: -46.5%.

Which activity change, negative = inhibition does the source give for `CCc1sc(C(=O)Nc2ccc(OC)c(S(=O)(=O)N3CCOCC3)c2)cc1C` here?
The activity change, negative = inhibition was inconclusive: -53%.

For `CCC1CN(C(=O)N2CCC(C(=O)N3CCN(c4cc(C)ccc4C)CC3)CC2)c2ccccc2O1` (stereo not given), which activity change, negative = inhibition is on record?
The activity change, negative = inhibition was inconclusive: -59.9%.

Which activity change, negative = inhibition does the source give for `COC(=O)C1=C(CSc2nnnn2C)NC(=O)NC1c1cc(C)ccc1C` (stereo not given) here?
Its activity change, negative = inhibition is inconclusive: -43.4%.

With `O=C(CN1CCC(n2nnc3cc(F)ccc32)CC1)NCCc1ccccc1` as the compound, how does the activity change, negative = inhibition read?
The activity change, negative = inhibition was inactive: 73.1%.

With `Cc1ccc(-n2[nH]c(C)c(/C=N/Nc3ccc([N+](=O)[O-])cc3[N+](=O)[O-])c2=O)cc1` as the compound, how does the activity change, negative = inhibition read?
Its activity change, negative = inhibition is inconclusive: -57.6%.

Which activity change, negative = inhibition does the source give for `CC1(C)Cc2c(c(N3CCOCC3)nc3snc(NC(=O)c4ccccc4)c23)CO1` here?
The activity change, negative = inhibition was inconclusive: -45.2%.

Which activity change, negative = inhibition does the source give for `Nc1nc(N2CCCCC2)nc(N(c2ccccc2)c2ccccc2)n1` here?
Its activity change, negative = inhibition is inactive: -23.9%.

Which activity change, negative = inhibition does the source give for `O=Cc1cn(CC(=O)N2CCc3ccccc32)c2ccccc12` here?
Its activity change, negative = inhibition is inconclusive: -44.8%.

Which activity change, negative = inhibition does the source give for `O=C(CCN1C(=O)c2ccccc2C1=O)c1ccccc1` here?
The activity change, negative = inhibition was inactive: 14.9%.

Which activity change, negative = inhibition does the source give for `CCCCCn1c(=O)c2c(nc3n2CCN3c2ccc(Br)cc2)n(C)c1=O` here?
The activity change, negative = inhibition was inconclusive: -47.3%.

For `O=C(c1ccccc1)C1(c2ccccc2)OC1c1ccccc1` (stereo not given), which activity change, negative = inhibition is on record?
Its activity change, negative = inhibition is inactive: -32.6%.

Which activity change, negative = inhibition does the source give for `c1ccc(OCCSc2nnc3sc4ccccc4n23)cc1` here?
The activity change, negative = inhibition was inconclusive: -53.3%.

For `O=c1c2ccccc2c(/C=N/c2nnc(Cc3ccccc3)s2)c(O)n1-c1ccc(Cl)cn1`, which activity change, negative = inhibition is on record?
The activity change, negative = inhibition was inconclusive: -52.1%.

For `COc1cc(C)ccc1OCCSc1nc2ccc(NC(C)=O)cc2s1`, which activity change, negative = inhibition is on record?
The activity change, negative = inhibition was inactive: -21.5%.

Which activity change, negative = inhibition does the source give for `CCOC(=O)N1CCN(c2cc(N)c([N+](=O)[O-])cc2F)CC1` here?
The activity change, negative = inhibition was inconclusive: -44.7%.

With `COc1ccc(C(=O)NCCCN2CCN(CCCNC(=O)c3ccc(OC)c(OC)c3)CC2)cc1OC` as the compound, how does the activity change, negative = inhibition read?
Its activity change, negative = inhibition is inactive: -16.6%.

Which activity change, negative = inhibition does the source give for `O=C(c1cc2ccccc2o1)N1CCN(c2ncccn2)CC1` here?
The activity change, negative = inhibition was inactive: 9.99%.

With `CC1=C(C#N)C(c2ccc(O)cc2)C2=C(CCCC2=O)N1` (stereo not given) as the compound, how does the activity change, negative = inhibition read?
The activity change, negative = inhibition was inactive: -7.41%.

For `CSc1nc(N)nc(SCC(=O)Nc2ccc(Cl)cc2)c1C#N`, which activity change, negative = inhibition is on record?
The activity change, negative = inhibition was inactive: -21.8%.

Which activity change, negative = inhibition does the source give for `CCC(C)NCC(=O)Nc1ccc(-c2nc3cc(NC(=O)CNC(C)CC)ccc3o2)cc1` (stereo not given) here?
Its activity change, negative = inhibition is active: -84.2%.

With `O=C(O)CC1(C(=O)O)CC2C=CC1C2` (stereo not given) as the compound, how does the activity change, negative = inhibition read?
The activity change, negative = inhibition was inactive: 0.106%.

Which activity change, negative = inhibition does the source give for `Cc1[nH]c2ccc(OC(F)(F)F)cc2c1CCNCc1cccc([N+](=O)[O-])c1` here?
The activity change, negative = inhibition was inconclusive: -56.8%.

For `CC(C)C[C@@H](CN=[N+]=[N-])N1CCN(C)CCC1=O`, which activity change, negative = inhibition is on record?
Its activity change, negative = inhibition is active: -62.5%.

For `COc1ccc(C)cc1Nc1n[n+](-c2ccccc2)c(-c2ccc(OC)c(OC)c2OC)s1`, which activity change, negative = inhibition is on record?
The activity change, negative = inhibition was inconclusive: -46.3%.

With `O=C(CC1C(=O)NCCN1C/C=C/c1ccccc1)NCCCC1CCCC1` (stereo not given) as the compound, how does the activity change, negative = inhibition read?
The activity change, negative = inhibition was inconclusive: -40.5%.

With `COc1ccc(NC2CCCN(C(=O)CSc3ccncc3)C2)cc1` (stereo not given) as the compound, how does the activity change, negative = inhibition read?
Its activity change, negative = inhibition is inactive: 29.2%.

For `CCc1ccc(NC(=O)CS(=O)CC(=O)Nc2ccc(N3CCOCC3)cc2)cc1` (stereo not given), which activity change, negative = inhibition is on record?
Its activity change, negative = inhibition is inconclusive: -45.6%.

With `CCOC(=O)c1sc(N/N=C/c2cc(Br)c(O)c(OC)c2)nc1C` as the compound, how does the activity change, negative = inhibition read?
Its activity change, negative = inhibition is inconclusive: -59.7%.

Which activity change, negative = inhibition does the source give for `COC(=O)CN1C(=O)NC2(CCCc3ccccc32)C1=O` (stereo not given) here?
The activity change, negative = inhibition was inconclusive: -48.7%.

With `Cc1nc2ccc(NC(=O)c3ccc(Cl)s3)cc2s1` as the compound, how does the activity change, negative = inhibition read?
Its activity change, negative = inhibition is inactive: -14.8%.

With `CCC[C@H]1[C@@H](NS(=O)(=O)c2ccc(NC(C)=O)cc2)CC[C@@]23CCCN2C(=O)CCC[C@@H]13` as the compound, how does the activity change, negative = inhibition read?
The activity change, negative = inhibition was inactive: -8.07%.

Which activity change, negative = inhibition does the source give for `Cc1ccc(CCCNC(=O)C2CCC(=O)N(Cc3cccc(F)c3)C2)cc1` (stereo not given) here?
Its activity change, negative = inhibition is inconclusive: -43.3%.

Which activity change, negative = inhibition does the source give for `Cc1c(CN2CCC(CO)(Cc3ccccc3)CC2)c2ccccc2n1C` here?
Its activity change, negative = inhibition is inconclusive: -59.1%.

With `COc1ccc(N2C(=O)CC(N(CCc3ccc(OC)c(OC)c3)C(=S)Nc3ccccc3)C2=O)cc1` (stereo not given) as the compound, how does the activity change, negative = inhibition read?
Its activity change, negative = inhibition is inactive: -35.7%.

For `CN(C)CC(=O)c1ccc(-c2ccccc2)cc1`, which activity change, negative = inhibition is on record?
Its activity change, negative = inhibition is inactive: -3.68%.

Which activity change, negative = inhibition does the source give for `Cc1occc1-c1nnc(SCC(N)=O)o1` here?
The activity change, negative = inhibition was inconclusive: -42.9%.

For `CCN(CC)c1ccc(NC(=S)NC(=O)C2CCC2)cc1`, which activity change, negative = inhibition is on record?
Its activity change, negative = inhibition is inactive: -4.54%.

Which activity change, negative = inhibition does the source give for `Cc1ccc(-c2nnc(Nc3ccccc3)o2)cc1` here?
The activity change, negative = inhibition was inconclusive: -40.3%.

With `CCCCNC(=O)c1sc2ncnc(N3CCc4ccccc4C3)c2c1C` as the compound, how does the activity change, negative = inhibition read?
The activity change, negative = inhibition was inconclusive: -45.1%.

With `Cc1nn(-c2ccc(F)cc2)c(Cl)c1C(=O)N(C)CC(=O)Nc1cccc(F)c1` as the compound, how does the activity change, negative = inhibition read?
The activity change, negative = inhibition was inconclusive: -58.1%.

With `N/C(COc1ncn(-c2ccccc2)n1)=N\S(=O)(=O)c1ccc(Cl)cc1Cl` as the compound, how does the activity change, negative = inhibition read?
Its activity change, negative = inhibition is inconclusive: -54.7%.

Which activity change, negative = inhibition does the source give for `CCN(c1cc(C)cc(C)c1)S(=O)(=O)c1nnc(NC(=O)C(C)C)s1` here?
Its activity change, negative = inhibition is active: -77.3%.

With `CC(Oc1ccccc1)C(=O)NNC(=O)c1ccccn1` (stereo not given) as the compound, how does the activity change, negative = inhibition read?
Its activity change, negative = inhibition is inconclusive: -49.7%.

With `COc1cc2c(cc1OC)CN(c1nc(CN3CCOCC3)nc3sc4c(c13)CCC(C)C4)CC2` (stereo not given) as the compound, how does the activity change, negative = inhibition read?
The activity change, negative = inhibition was inconclusive: -55.1%.

With `Cc1ccc(CC(=O)Nc2nccs2)cc1C` as the compound, how does the activity change, negative = inhibition read?
The activity change, negative = inhibition was active: -93.6%.

For `CC1CCN(C(=O)C(C)Sc2nc(-c3ccccc3)cc(C(F)(F)F)n2)CC1` (stereo not given), which activity change, negative = inhibition is on record?
Its activity change, negative = inhibition is inconclusive: -50.5%.

With `Cc1cccc(-c2nc(SCC(=O)N(C)c3ccccc3)c3c(=O)n(C)c(=O)n(C)c3n2)c1` as the compound, how does the activity change, negative = inhibition read?
The activity change, negative = inhibition was inactive: 10.8%.

Which activity change, negative = inhibition does the source give for `COc1cc(OC)c(NC(=O)N2CC=C(c3c[nH]c4ccccc34)CC2)cc1Cl` here?
Its activity change, negative = inhibition is inconclusive: 0%.

Reference: PubChem BioAssay AID1259415 (National Center for Advancing Translational Sciences (NCATS), 2018)
